{"source": "ChEMBL document CHEMBL3596144", "about": "“New Indole Tubulin Assembly Inhibitors Cause Stable Arrest of Mitotic Progression, Enhanced Stimulation of Natural Killer Cell Cytotoxic Activity, and Repression of Hedgehog-Dependent Cancer” (J Med Chem, 2015)", "key": {"[1]": {"test": "Cytotoxicity against human MESSA cells assessed as growth inhibition after 72 hrs by CellTiter-Glo assay", "type": "functional, cell-based", "conditions": "MES-SA"}, "[2]": {"test": "Cytotoxicity against human MESSA/DX5 cells assessed as growth inhibition after 72 hrs by CellTiter-Glo assay", "type": "functional, cell-based", "conditions": "MES-SA/Dx5, 72 h"}}, "note": "pIC50: −log10 of the molar value."}
{"smiles": "COc1cc2c(c(OC)c1OC)-c1ccc(OC)c(=O)cc1[C@@H](NC(C)=O)CC2", "note": "[COLCHICINE]", "values": [{"measurement": "pIC50", "setting": "[1]", "result": 7.96}, {"measurement": "pIC50", "setting": "[2]", "result": 6.48}]}
